Laboratory results published in paper PMC12271312.

Sequences of proteins named here, by UniProt entry; tags and fusion partners are left off.
UniProt Q00613: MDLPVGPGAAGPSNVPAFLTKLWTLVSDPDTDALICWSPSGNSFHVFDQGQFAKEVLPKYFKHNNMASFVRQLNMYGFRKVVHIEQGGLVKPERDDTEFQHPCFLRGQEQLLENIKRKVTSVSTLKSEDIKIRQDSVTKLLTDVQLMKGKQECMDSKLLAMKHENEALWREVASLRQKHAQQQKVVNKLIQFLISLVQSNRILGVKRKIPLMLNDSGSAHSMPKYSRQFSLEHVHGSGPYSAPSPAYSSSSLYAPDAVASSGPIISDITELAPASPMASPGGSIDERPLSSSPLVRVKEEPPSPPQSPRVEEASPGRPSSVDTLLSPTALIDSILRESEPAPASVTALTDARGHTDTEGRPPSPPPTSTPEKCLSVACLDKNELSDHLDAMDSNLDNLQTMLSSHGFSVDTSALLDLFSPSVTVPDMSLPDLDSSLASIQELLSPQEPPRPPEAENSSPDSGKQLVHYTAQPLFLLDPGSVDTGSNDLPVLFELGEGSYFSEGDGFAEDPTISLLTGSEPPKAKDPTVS
UniProt O14744: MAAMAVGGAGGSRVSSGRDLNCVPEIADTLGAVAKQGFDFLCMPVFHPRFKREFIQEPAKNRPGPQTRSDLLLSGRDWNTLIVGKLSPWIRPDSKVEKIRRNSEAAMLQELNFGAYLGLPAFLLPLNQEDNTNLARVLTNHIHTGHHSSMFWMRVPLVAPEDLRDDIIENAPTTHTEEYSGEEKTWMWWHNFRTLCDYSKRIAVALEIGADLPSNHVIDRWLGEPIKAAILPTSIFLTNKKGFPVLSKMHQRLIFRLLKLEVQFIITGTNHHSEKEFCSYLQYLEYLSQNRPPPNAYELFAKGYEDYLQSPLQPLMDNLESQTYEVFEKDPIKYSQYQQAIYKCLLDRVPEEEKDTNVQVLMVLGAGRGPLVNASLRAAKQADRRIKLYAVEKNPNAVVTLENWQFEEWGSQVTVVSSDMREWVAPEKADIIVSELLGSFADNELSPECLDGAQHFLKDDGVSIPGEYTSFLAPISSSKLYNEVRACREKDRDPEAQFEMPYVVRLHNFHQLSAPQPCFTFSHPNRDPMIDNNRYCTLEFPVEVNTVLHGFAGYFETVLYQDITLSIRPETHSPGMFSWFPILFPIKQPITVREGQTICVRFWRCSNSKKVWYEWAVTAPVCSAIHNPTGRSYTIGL

Target: Heat shock factor 1 (human (endogenous in SU-DHL-2, SU-DHL-4, SU-DHL-6)) (UniProt Q00613)
Assay: affinity purification with mass spectrometry; Co-IP from DLBCL cells followed by mass spectrometry of HSF1-binding proteins

binding: binds
Substance: protein arginine methyltransferase 5 (from UniProt O14744 1-637) (enzyme)

These are yes or no findings as the source states them, for the method shown. Binding seen in cells or lysates may run through a third protein. A yes stands for co-enrichment or nearness to the bait. Other partners may have been found.
